Experimental data published in PMC3396653.
Results are given in words; binding and its absence hold for the method and conditions named. Binding seen in cells or lysates may run through a third protein. Some entries that bind do so weakly or less than the wild type.

Sequences of proteins named here, by UniProt entry; tags and fusion partners are left off. Residues count along the entry.
UniProt P35918, residues 20-1345: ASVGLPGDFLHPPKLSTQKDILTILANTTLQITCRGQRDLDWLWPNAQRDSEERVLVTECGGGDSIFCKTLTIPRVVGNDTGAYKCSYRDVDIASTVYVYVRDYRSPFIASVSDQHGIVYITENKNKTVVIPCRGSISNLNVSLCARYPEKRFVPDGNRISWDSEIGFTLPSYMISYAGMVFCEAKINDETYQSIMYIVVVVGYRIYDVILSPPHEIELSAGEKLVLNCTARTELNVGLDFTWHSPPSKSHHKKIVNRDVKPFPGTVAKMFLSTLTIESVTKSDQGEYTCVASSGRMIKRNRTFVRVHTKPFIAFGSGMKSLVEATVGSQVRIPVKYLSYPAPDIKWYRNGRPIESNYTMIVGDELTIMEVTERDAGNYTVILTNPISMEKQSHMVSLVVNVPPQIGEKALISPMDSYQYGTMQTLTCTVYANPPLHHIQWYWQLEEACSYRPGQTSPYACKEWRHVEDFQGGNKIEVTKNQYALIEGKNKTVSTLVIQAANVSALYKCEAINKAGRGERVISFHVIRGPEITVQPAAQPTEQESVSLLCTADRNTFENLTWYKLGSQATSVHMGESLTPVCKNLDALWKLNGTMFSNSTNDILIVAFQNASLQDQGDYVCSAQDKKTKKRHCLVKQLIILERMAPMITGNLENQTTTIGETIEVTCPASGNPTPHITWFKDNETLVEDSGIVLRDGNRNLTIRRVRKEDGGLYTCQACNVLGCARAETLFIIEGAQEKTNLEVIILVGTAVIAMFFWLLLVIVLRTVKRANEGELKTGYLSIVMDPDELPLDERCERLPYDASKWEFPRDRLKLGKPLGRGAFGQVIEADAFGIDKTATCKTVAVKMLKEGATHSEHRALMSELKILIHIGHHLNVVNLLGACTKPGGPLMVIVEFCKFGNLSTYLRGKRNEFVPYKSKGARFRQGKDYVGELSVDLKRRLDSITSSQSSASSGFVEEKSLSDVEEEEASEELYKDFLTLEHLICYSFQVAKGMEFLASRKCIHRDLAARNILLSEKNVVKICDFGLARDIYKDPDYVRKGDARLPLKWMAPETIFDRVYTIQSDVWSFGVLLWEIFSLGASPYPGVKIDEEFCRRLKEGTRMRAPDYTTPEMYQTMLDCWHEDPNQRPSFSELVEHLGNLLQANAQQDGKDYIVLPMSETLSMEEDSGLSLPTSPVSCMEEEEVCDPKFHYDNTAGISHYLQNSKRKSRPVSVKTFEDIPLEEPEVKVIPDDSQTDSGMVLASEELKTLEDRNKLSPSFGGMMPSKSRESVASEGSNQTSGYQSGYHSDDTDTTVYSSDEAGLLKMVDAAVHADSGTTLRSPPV

T1: beta3 integrin (mouse (endogenous in kidney and VEGF^KD podocytes)) (UniProt O54890)
T1 sequence: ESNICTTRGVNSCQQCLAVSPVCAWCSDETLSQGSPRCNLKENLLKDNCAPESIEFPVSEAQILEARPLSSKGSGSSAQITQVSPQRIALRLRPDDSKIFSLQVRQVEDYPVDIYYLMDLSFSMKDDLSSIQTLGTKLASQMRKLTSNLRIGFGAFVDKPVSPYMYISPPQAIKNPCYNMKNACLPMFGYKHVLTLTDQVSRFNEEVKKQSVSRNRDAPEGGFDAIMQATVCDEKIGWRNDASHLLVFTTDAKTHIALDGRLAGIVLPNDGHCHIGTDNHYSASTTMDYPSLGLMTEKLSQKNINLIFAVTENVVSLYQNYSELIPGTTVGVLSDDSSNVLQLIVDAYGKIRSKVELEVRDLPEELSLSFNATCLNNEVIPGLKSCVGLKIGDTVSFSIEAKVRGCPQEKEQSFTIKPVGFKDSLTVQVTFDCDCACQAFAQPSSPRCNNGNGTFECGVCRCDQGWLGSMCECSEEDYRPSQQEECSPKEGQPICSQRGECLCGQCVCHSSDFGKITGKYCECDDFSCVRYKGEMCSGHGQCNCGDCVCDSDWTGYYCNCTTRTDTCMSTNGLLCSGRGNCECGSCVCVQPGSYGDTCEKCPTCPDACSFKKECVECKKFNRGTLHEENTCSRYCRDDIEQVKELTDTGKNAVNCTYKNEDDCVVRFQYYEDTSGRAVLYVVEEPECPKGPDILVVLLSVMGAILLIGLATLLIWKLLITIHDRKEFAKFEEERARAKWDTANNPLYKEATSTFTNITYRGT


Experiments:
[1] = target: T1, beta3 integrin (mouse (endogenous in kidney and VEGF^KD podocytes)); assay: co-IP; VEGF^KD podocyte lysates (1 mg), cells with or without doxycycline (1 µg/ml) for 48 hours; IP buffer (1% Triton X-100, 1% Nonidet P-40, 0.5% Na deoxycholate, 150 mM NaCl, 10 mM Tris pH 7.5, 1 mM EDTA, 50 mM NaF); IP with VEGFR2 or beta3 integrin antibody overnight at 4°C, protein A-agarose; rabbit serum as negative control; western blot
[2] = target: T1, beta3 integrin (mouse (endogenous in kidney and VEGF^KD podocytes)); assay: co-IP; pooled mouse whole kidney lysates (1.5 mg) in IP buffer (1% Triton X-100, 1% Nonidet P-40, 0.5% Na deoxycholate, 150 mM NaCl, 10 mM Tris pH 7.5, 1 mM EDTA, 50 mM NaF); IP with VEGFR2 or beta3 integrin antibody overnight at 4°C, protein A-agarose; rabbit serum as negative control; western …
[3] = target: VEGF receptor 2 (mouse (endogenous in kidney and VEGF^KD podocytes)) (UniProt P35918); assay: as above
[4] = target: VEGF receptor 2 (mouse (endogenous in kidney and VEGF^KD podocytes)) (UniProt P35918); assay: co-IP; VEGF^KD podocyte lysates (1 mg), cells with or without doxycycline (1 µg/ml) for 48 hours; IP buffer (1% Triton X-100, 1% Nonidet P-40, 0.5% Na deoxycholate, 150 mM NaCl, 10 mM Tris pH 7.5, 1 mM EDTA, 50 mM NaF); IP with VEGFR2 or beta3 integrin antibody overnight at 4°C, protein A-agarose; rabbit serum as negative control; western blot

Row | binding [1] | binding [2] | binding [3] | binding [4] | Molecule
1 | binds | binds | – | – | VEGF receptor 2 (from UniProt P35918 20-1345)
2 | binds | binds | – | – | neuropilin-1 (from UniProt P97333 22-923) (receptor)
3 | – | – | binds | binds | beta3 integrin (receptor, UniProt O54890 26-787) ESNICTTRGVNSCQQCLAVSPVCAWCSDETLSQGSPRCNLKENLLKDNCAPESIEFPVSEAQILEARPLSSKGSGSSAQITQVSPQRIALRLRPDDSKIFSLQVRQVEDYPVDIYYLMDLSFSMKDDLSSIQTLGTKLASQMRKLTSNLRIGFGAFVDKPVSPYMYISPPQAIKNPCYNMKNACLPMFGYKHVLTLTDQVSRFNEEVKKQSVSRNRDAPEGGFDAIMQATVCDEKIGWRNDASHLLVFTTDAKTHIALDGRLAGIVLPNDGHCHIGTDNHYSASTTMDYPSLGLMTEKLSQKNINLIFAVTENVVSLYQNYSELIPGTTVGVLSDDSSNVLQLIVDAYGKIRSKVELEVRDLPEELSLSFNATCLNNEVIPGLKSCVGLKIGDTVSFSIEAKVRGCPQEKEQSFTIKPVGFKDSLTVQVTFDCDCACQAFAQPSSPRCNNGNGTFECGVCRCDQGWLGSMCECSEEDYRPSQQEECSPKEGQPICSQRGECLCGQCVCHSSDFGKITGKYCECDDFSCVRYKGEMCSGHGQCNCGDCVCDSDWTGYYCNCTTRTDTCMSTNGLLCSGRGNCECGSCVCVQPGSYGDTCEKCPTCPDACSFKKECVECKKFNRGTLHEENTCSRYCRDDIEQVKELTDTGKNAVNCTYKNEDDCVVRFQYYEDTSGRAVLYVVEEPECPKGPDILVVLLSVMGAILLIGLATLLIWKLLITIHDRKEFAKFEEERARAKWDTANNPLYKEATSTFTNITYRGT
